# Experimental data taken from publication PMC13225219.
# Target: T1, GST-Drak (435-532) (Drosophila melanogaster) (UniProt Q0KHT7)
# T1 sequence: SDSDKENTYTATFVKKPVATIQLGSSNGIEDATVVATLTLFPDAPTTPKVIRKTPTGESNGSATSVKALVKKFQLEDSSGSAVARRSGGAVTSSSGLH
# Test: pull-down; GST-Drak on glutathione agarose; 100 µl of 0.2-10 µM Filamin fragment, 20 min on ice in 20 mM Tris-HCl pH 7.5, 100 mM NaCl, 1 mM DTT; washed with PBS; stain-free SDS-PAGE, Filamin to Drak band ratio; both purified
row,binding,Substance
1,no binding (tested: 10 μM),Filamin-closed (five-domain Drosophila Filamin fragment Cher15-19closedMSR) (domain or fragment)
2,binds,Filamin-open (five-domain Drosophila Filamin fragment Cher15-19openMSR) (domain or fragment)
3,binds weakly,Filamin-wild type (five-domain Drosophila Filamin fragment Cher15-19wt) (domain or fragment)

# No constants are given. Whether binding was seen depends on the method and setting. A result given as binding can be weak or reduced; the word gives no strength. Tags and fused reporters may be left off the sequences shown.
